According to patent KR20220134462A:
These are yes or no findings as the source states them, for the method shown. Some entries that bind do so weakly or less than the wild type. Tags and fused reporters may be left off the sequences shown.

T1: Recombinant Human B7-H3 Fc chimera Protein (Rndsystem, Cat# 1027-B3-100) (human) (UniProt Q5ZPR3)
T1 sequence (looked up): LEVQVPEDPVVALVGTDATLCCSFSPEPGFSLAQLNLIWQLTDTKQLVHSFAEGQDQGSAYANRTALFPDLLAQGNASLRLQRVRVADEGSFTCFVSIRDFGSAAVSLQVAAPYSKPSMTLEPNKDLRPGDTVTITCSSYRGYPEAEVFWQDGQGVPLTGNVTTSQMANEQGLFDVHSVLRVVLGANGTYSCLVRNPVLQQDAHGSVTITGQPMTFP

B1: #1 항체 (B7-H3 항체) (antibody, V domains shown)
VH: EVQLLESGGGLVQPGGSLRLSCAASGFTFSSYAMSWVRQAPGKGLEWVSTITGSGGSTYYADSVKGRFTISRDNSKNTLYLQMNSLRAEDTAVYYCARYKSGAFDIWGQGTLVTVSS
VL: EIVLTQSPGTLSLSPGERATLSCRASQGIGNYLGWYQQKPGQAPRLLIYTASSLQSGIPDRFSGSGSGTDFTLTISRLEPEDFAVYYCQQGYSTPSWTFGQGTKVEIK
B2: #3 항체 (B7-H3 항체) (antibody, V domains shown)
VH: EVQLLESGGGLVQPGGSLRLSCAASGFTFSTYYMTWVRQAPGKGLEWVSIINPRGGSTSYAEKFQGRFTISRDNSKNTLYLQMNSLRAEDTAVYYCARWNLGMDVWGQGTLVTVSS
VL: EIVLTQSPGTLSLSPGERATLSCRVSQSISSYLNWYQQKPGQAPRLLIYDASHRATGIPDRFSGSGSGTDFTLTISRLEPEDFAVYYCQQYYAPSVTFGQGTKVEIK
B3: #4 항체 (B7-H3 항체) (antibody, V domains shown)
VH: EVQLLESGGGLVQPGGSLRLSCAASGFTFSSYGMHWVRQAPGKGLEWVSAISGSGTSIYYANSVKSRFTISRDNSKNTLYLQMNSLRAEDTAVYYCARGAGWFDYWGQGTLVTVSS
VL: QSVLTQPPSASGTPGQRVTISCSGSTSNIGSNTVNWYQQLPGTAPKLLIYGKNIRPNGVPDRFSGSKSGTSASLAISGLHSEDEADYYCQSYDSSLSGWVFGGGTKLTVL
B4: #2 항체 (B7-H3 항체) (antibody, V domains shown)
VH: EVQLLESGGGLVQPGGSLRLSCAASGFTFSAYYMIWVRQAPGKGLEWVSITNPSGGVTSYAQKFQGRFTISRDNSKNTLYLQMNSLRAEDTAVYYCARVGGRGFDIWGQGTLVTVSS
VL: EIVLTQSPGTLSLSPGERATLSCHASQGISNYVAWYQQKPGQAPRLLIYDASNRATGIPDRFSGSGSGTDFTLTISHLEPEDFAVYYCQQSYSTLLTFGQGTKVEIK
B5: #6 항체 (B7-H3 항체) (antibody, V domains shown)
VH: EVQLLESGGGLVQPGGSLRLSCAASGFTFSTYAISWVRQAPGKGLEWVSSIYYSGYTHYNPSLESRFTISRDNSKNTLYLQMNSLRAEDTAVYYCARGYSGWMDVWGQGTLVTVSS
VL: QSVLTQPPSASGTPGQRVTISCGGNNIGSKSVHWYQQLPGTAPKLLIYDNNKRPSGVPNRFSGSKSGTSASLAISGLRSEDEADYYCAAWDDSLNVPVFGGGTKLTVL
B6: #9 항체 (B7-H3 항체) (antibody, V domains shown)
VH: EVQLLESGGGLVQPGGSLRLSCAASGFTFSSYAMNWVRQAPGKGLEWVSTISGSGGQTYYADSVKGRFTISRDNSKNTLYLQMNSLRAEDTAVYYCARWRSIWAFDYWGQGTLVTVSS
VL: QSVLTQPPSASGTPGQRVTISCSDNNIGSKSVHWYQQLPGTAPKLLIYDNNKRPSGVPDRFSGSKSGTSASLAISGLRSEDEADYYCGTWDDSLSGPVFGGGTKLTVL
B7: #7 항체 (B7-H3 항체) (antibody, V domains shown)
VH: EVQLLESGGGLVQPGGSLRLSCAASGFTFSNFWIGWVRQAPGKGLEWVSWINPPGSITSYADSVKGRFTISRDNSKDTLYLQMNSLRAEDTAVYYCAREVGDVLDYWGQGTLVTVSS
VL: QSVLTQPPSASGTPGQRVTISCTGTSSDIGRYNYVSWYQQLPGTAPKLLIYRNTQRPSGVPDRFSGSKSGTSASLAISGLRSEDEADYYCGTWDSSLNAYVFGGGTKLTVL
B8: #5 항체 (B7-H3 항체) (antibody, V domains shown)
VH: EVQLLESGGGLVQPGGSLRLSCAASGFTFSTYAMSWVRQAPGKGLEWVSAISGSGGSTLYADSVKGRFTISRDNSKNTLYLQMNSLRAEDTAVYYCARGGSATWAFDLWGQGTLVTVSS
VL: QSVLTQPPSASGTPGQRVTISCSGSSSNIGSNYVYWYQQLPGTAPKLLIYRNNQRPSGVPDRFSGSKSGTSASLAISGLRSEDEADYYCGTWDSSLSGVVFGGGTKLTVL
B9: #8 항체 (B7-H3 항체) (antibody, V domains shown)
VH: EVQLLESGGGLVQPGSSLRLSCAASGFTFSSYWISWVRQAPGKGLEWVSEISPSGNTNYNPSLKSRFTISRDNSKNTLYLQMNSLRAEDTAVYYCAREVGDLLDYWGQGTLVTVSS
VL: QSVLTQPPSASGTPGQRVTISCSGSNIGNNYVSWYQQLPGTAPKLLIYQDSKRPSGVPDRFSGSKSGTSASLAISGLRSEDEADYYCLVWDRSSDHFVFGGGTKLTVL

Target: T1, Recombinant Human B7-H3 Fc chimera Protein (Rndsystem, Cat# 1027-B3-100) (human)
Assay: ELISA, coated recombinant human B7-H3, anti-HA tag HRP detection

binding, binds:
B1
B2
B3
B4
B5
B6
B7
B8
B9
